This is an account of results in publication PMC9932127.

Sequences of proteins named here, by UniProt entry; tags and fusion partners are left off.
UniProt Q5TDH0: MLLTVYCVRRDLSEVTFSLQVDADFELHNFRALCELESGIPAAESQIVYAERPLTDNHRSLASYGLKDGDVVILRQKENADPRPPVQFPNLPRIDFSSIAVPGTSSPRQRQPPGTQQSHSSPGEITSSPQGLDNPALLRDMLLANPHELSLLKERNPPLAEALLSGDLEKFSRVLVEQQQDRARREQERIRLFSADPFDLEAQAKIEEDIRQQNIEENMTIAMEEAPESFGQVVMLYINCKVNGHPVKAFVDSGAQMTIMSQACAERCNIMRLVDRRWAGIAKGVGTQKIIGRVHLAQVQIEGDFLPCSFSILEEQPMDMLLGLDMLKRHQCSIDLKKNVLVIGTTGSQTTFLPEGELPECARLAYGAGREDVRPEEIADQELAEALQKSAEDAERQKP

These are yes or no findings as the source states them, for the method shown. In cells and extracts the contact can be indirect. Some entries that bind do so weakly or less than the wild type.

In this test the target is full-length DDI2 tagged with FLAG or HA (UniProt Q5TDH0). Briefly: co-IP; FLAG- and HA-tagged DDI2 (full length or ΔUBL) co-expressed, precipitated with FLAG-M2 affinity gel; Triton lysis buffer, 4°C 2 h, washes with 500 mM NaCl; cells with or without amino acid depletion.

With “full-length DDI2 tagged with FLAG or HA (from UniProt Q5TDH0 1-399)”, the binding result is reported as “binds”.
